Results as given in the supplement of paper PMC10849652.
Some of the results follow. Residues, ends and D or L forms follow the SMILES beside them. *: point of attachment. Cbz = O=C(OCc1ccccc1)*

Sequences of proteins named here, by UniProt entry; tags and fusion partners are left off. A change or cut given only in a name is not applied to a line headed by its entry.
UniProt Q147X3: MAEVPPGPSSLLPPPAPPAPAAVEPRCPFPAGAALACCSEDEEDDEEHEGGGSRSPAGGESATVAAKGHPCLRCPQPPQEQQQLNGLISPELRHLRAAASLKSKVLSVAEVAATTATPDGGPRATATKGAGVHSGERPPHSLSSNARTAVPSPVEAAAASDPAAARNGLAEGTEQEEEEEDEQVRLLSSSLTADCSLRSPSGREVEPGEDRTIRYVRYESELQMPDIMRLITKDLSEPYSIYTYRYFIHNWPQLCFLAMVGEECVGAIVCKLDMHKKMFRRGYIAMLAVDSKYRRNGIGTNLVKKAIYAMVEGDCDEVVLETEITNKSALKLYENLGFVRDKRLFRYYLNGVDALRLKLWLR
UniProt Q9NX14, whole entry, looked up: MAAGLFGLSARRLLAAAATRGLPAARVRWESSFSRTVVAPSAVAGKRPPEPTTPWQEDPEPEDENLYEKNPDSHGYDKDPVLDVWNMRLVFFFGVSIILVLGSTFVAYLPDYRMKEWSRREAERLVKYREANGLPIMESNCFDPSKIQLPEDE
UniProt Q8NHV4, whole entry, looked up: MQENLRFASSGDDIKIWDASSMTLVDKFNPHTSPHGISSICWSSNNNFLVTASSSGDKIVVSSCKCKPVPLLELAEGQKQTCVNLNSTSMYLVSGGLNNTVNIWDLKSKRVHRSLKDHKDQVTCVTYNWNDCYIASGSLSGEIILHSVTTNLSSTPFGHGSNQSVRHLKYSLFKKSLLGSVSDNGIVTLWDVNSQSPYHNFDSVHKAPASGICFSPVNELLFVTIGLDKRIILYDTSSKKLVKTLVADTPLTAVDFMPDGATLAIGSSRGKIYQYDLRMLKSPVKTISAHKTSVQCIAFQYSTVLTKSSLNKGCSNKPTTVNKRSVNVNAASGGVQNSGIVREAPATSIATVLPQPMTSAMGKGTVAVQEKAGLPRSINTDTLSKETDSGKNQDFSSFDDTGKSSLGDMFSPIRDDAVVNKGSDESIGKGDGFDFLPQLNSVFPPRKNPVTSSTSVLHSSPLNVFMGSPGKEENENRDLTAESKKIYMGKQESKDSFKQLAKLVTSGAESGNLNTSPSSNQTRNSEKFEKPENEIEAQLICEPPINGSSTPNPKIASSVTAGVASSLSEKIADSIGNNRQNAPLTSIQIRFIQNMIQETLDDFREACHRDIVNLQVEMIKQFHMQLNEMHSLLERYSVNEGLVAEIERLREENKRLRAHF
UniProt O75113: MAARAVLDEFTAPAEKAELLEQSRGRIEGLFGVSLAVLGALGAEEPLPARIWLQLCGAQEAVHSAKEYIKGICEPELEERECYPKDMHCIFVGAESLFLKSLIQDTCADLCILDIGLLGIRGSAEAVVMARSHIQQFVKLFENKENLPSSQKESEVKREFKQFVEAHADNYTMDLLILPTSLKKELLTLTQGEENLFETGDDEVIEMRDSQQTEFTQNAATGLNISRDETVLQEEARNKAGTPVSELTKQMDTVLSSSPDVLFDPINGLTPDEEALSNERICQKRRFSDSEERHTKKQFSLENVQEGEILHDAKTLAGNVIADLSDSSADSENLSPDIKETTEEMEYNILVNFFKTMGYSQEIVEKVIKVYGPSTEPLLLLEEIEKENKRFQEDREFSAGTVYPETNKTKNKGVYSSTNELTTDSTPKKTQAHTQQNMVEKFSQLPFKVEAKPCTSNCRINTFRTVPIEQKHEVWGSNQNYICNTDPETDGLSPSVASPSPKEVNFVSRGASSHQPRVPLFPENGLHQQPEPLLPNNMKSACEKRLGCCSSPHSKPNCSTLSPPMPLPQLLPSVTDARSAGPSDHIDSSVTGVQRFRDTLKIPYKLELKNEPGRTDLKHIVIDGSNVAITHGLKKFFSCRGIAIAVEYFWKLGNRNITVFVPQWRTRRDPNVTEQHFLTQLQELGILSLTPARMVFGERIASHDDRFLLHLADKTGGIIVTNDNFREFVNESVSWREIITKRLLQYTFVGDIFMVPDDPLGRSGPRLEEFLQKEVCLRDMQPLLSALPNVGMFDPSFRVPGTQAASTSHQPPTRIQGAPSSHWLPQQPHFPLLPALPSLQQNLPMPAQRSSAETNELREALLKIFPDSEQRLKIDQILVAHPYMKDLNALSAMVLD
UniProt P56181: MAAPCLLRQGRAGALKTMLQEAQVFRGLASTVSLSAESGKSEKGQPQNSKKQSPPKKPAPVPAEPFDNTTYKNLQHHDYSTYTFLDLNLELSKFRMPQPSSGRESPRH
UniProt Q9BU61: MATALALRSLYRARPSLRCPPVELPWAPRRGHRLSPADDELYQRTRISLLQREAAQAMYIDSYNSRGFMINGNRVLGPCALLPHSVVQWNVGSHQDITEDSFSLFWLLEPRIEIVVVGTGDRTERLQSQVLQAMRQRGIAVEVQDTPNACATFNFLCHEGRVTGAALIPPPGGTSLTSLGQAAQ
UniProt Q9UHB4: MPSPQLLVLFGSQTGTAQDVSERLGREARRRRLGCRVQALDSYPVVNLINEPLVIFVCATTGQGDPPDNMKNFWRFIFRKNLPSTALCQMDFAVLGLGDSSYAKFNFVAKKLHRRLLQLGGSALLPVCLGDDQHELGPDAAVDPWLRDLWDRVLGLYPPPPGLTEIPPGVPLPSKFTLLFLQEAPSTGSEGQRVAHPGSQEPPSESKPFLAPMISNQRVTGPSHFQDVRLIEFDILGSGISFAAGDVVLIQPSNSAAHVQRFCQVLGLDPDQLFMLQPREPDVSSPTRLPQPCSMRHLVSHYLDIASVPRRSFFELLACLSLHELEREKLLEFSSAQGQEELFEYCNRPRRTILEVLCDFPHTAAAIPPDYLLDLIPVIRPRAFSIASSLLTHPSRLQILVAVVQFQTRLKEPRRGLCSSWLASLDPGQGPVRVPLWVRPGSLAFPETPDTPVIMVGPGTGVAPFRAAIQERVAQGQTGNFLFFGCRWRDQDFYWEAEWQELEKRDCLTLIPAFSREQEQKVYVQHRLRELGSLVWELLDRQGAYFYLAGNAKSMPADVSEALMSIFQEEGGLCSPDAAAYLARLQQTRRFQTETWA
UniProt P51970, whole entry, looked up: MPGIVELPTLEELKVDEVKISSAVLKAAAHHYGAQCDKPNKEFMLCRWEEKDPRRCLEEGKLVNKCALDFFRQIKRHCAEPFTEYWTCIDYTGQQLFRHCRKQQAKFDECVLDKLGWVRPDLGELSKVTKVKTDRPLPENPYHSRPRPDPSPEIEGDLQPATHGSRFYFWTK
UniProt Q86Y39, whole entry, looked up: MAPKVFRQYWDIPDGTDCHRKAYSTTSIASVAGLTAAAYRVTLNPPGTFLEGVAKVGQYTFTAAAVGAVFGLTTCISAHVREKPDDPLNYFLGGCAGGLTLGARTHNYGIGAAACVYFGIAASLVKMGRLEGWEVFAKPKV
UniProt O43776: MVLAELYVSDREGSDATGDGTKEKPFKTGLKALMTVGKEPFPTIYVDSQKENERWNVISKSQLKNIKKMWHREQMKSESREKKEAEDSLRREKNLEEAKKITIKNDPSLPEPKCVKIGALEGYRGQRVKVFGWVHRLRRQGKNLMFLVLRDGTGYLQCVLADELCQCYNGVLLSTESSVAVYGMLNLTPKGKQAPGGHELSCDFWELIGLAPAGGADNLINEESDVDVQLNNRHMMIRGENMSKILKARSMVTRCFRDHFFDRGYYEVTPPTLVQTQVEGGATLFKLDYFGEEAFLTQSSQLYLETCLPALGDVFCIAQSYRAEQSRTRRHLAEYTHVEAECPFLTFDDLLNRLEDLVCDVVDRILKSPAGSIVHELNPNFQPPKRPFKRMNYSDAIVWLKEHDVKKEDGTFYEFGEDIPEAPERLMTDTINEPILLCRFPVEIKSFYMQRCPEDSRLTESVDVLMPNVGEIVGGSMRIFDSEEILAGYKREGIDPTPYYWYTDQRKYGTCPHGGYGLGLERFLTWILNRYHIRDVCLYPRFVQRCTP
UniProt Q9GZZ1: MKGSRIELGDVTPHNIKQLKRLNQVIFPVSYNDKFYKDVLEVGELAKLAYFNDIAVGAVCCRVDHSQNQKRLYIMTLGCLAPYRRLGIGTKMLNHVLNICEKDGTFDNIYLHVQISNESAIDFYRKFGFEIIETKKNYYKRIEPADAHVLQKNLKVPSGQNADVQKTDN
UniProt Q9P032: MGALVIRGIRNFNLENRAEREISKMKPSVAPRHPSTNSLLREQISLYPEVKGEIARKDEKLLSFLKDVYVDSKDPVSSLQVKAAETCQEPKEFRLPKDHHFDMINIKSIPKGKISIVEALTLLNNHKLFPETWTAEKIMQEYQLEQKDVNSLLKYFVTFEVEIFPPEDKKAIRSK
UniProt O75306, whole entry, looked up: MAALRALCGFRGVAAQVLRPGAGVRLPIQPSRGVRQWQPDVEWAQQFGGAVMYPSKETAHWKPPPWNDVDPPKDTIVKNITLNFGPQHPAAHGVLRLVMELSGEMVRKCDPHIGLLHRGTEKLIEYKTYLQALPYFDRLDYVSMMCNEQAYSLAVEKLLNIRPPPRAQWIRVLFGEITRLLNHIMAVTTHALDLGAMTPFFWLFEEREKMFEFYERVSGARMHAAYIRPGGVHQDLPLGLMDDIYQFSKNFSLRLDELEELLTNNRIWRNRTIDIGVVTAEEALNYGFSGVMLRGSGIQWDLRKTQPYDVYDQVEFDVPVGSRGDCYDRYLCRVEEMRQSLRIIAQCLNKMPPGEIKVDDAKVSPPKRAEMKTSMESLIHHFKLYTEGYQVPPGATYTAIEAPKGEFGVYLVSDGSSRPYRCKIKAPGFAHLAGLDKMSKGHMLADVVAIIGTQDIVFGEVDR
UniProt Q6N069: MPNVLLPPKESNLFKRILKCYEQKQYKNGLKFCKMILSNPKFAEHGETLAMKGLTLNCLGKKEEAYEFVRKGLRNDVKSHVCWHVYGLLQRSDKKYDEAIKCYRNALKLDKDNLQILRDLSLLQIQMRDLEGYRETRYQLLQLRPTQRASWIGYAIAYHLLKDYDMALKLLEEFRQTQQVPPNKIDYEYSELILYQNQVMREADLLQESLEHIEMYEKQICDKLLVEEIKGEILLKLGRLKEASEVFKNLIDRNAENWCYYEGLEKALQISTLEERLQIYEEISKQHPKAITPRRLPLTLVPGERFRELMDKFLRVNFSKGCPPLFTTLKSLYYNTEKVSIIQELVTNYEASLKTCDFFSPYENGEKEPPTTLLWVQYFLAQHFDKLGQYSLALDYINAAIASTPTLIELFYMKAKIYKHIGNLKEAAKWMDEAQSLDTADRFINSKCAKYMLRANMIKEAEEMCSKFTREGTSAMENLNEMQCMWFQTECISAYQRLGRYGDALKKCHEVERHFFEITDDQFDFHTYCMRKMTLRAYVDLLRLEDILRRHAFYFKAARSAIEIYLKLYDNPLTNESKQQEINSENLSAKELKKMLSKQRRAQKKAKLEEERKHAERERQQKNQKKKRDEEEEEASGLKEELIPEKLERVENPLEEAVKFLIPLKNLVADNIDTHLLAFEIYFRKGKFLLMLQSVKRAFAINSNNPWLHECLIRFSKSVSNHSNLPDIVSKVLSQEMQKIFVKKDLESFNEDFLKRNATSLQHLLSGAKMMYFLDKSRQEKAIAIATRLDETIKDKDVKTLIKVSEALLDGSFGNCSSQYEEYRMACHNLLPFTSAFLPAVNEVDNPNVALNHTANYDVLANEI
UniProt Q8NCW5: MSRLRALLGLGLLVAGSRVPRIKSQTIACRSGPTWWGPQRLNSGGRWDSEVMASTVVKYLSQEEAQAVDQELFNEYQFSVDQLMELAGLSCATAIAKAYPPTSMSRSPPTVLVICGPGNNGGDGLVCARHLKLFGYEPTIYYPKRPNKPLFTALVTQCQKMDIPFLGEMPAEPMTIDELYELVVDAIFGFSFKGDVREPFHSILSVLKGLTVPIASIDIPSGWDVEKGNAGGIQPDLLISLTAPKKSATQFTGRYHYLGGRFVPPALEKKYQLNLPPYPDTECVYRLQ

Key:
Assay in all cases: log2 fold change, soluble protein after heating vs DMSO (PISA); higher = thermal stabilisation; K562 cells, 10 uM, 30 min; active = over 0.2 and 3.5 SD of the protein, either way, in both replicates (recomputed)
erlotinib = compound: C#Cc1cccc(Nc2ncnc3cc(OCCOC)c(OCCOC)cc23)c1 [erlotinib]
Procedure, shortened: (§1)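 Soluble protein was defined as the supernatant after 21,000xg for 90 min. It came from K562 cells at 2×10^6 cells/mL given 10 μM compound for 30 min, heated in aliquots for 3 min across 48°C-58°C, pooled, and extracted in PBS with 0.5% NP-40 at 4°C, and was quantified by TMTpro 16plex LC-MS/MS with equalised channel sums. Thermal stability against control samples, from duplicates, is reported as log2 fold change.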

[1] = compound: C/C(=N\NC(=O)C1=CC(=CC=C1)S(=O)(=O)N2CCOCC2)/C3=C(C=CC(=C3)Cl)O
Procedure, shortened: as §1

[2] = compound: C1=CC(=C(C=C1Cl)C2=NC3=NC=CN=C3C(=N2)NC4=CC=NC=C4)F
Procedure, shortened: as §1

[3] = compound: C1=CC(=CC=C1C2=NC3=C(N2)C=C(C=C3)C(=O)N)OC4=CC=C(C=C4)Cl
Procedure, shortened: as §1

[4] = compound: C1=CC2=C(C=CC(=C2)/C=C\3/C(=O)NC(=NCC4=CC=CS4)S3)N=C1
Procedure, shortened: as §1

[5] = compound: C1=CC2=NC=CN=C2C=C1/C=C/3\C(=O)NC(=O)S3
Procedure, shortened: as §1

[6] = compound: C1=CC=C(C=C1)C2=NC(=C(N2)C3=CC=NC=C3)C4=CC(=C(C=C4)Cl)O
Procedure, shortened: as §1

[7] = compound: C1=CC=C2C(=C1)C3=NNC4=CC=CC(=C43)C2=O
Procedure, shortened: as §1

[8] = compound: C1CCN(C1)C(=O)NC2=CC=CC(=C2)NC3=NC=C(C(=N3)NCCC4=CN=CN4)Br
Procedure, shortened: as §1

[9] = compound: C1CN(CCC1(CC2=CC=C(C=C2)Cl)N)C3=NC=NC4=C3C=CN4
Procedure, shortened: as §1

IRAK-1-4 Inhibitor I = compound: C1COCCN1CCN2C3=CC=CC=C3N=C2NC(=O)C4=CC(=CC=C4)[N+](=O)[O-] [IRAK-1-4 Inhibitor I]
Procedure, shortened: as §1

ibrutinib = compound: C=CC(=O)N1CCC[C@@H](n2nc(-c3ccc(Oc4ccccc4)cc3)c3c(N)ncnc32)C1 [ibrutinib]
Procedure, shortened: as §1

[10] = compound: CC(=O)c1cnc2ccc(-c3cc(Cl)c(O)c(Cl)c3)nc2c1N[C@H]1CC[C@H](CN(C)C)CC1
Procedure, shortened: as §1

ralimetinib = compound: CC(C)(C)Cn1c(N)nc2ccc(-c3[nH]c(C(C)(C)C)nc3-c3ccc(F)cc3)nc21 [ralimetinib]
Procedure, shortened: as §1

[11] = compound: CC(C)(O)CC(=O)NCCn1ccc2ncnc(Nc3ccc(Oc4cccc(C(F)(F)F)c4)c(Cl)c3)c21
Procedure, shortened: as §1

[12] = compound: CC(C)C1=C2N=C(C=C(N2N=C1)NCC3=CC=CC=C3)NCCCCCCN
Procedure, shortened: as §1

[13] = compound: CC(C)C[C@@H](C=O)NC(=O)[C@H](CC(C)C)NC(=O)[C@H](CC(C)C)NC(=O)OCc1ccccc1
Procedure, shortened: as §1

pinometostat = compound: CC(C)N(C[C@H]1O[C@@H](n2cnc3c(N)ncnc32)[C@H](O)[C@@H]1O)[C@H]1C[C@@H](CCc2nc3cc(C(C)(C)C)ccc3[nH]2)C1 [pinometostat]
Procedure, shortened: as §1

[14] = compound: CC1=C(C(CC(=O)N1)C2=CC=C(C=C2)C(F)(F)F)C(=O)NC3=C(C=C4C(=C3)C=NN4)F
Procedure, shortened: as §1

[15] = compound: CC1=C(C2=C(C=C1)C(=O)C3=CC=CC=C3N2CCCN)C
Procedure, shortened: as §1

Measured: log2 fold change

NAA30 (UniProt Q147X3)
inactive: erlotinib 0.03 | [1] -0.001 | [2] 0.142 | [3] 0.045 | [4] -0.02 | [5] -0.049 | [6] -0.021 | [7] 0.056 | [8] 0.076 | [9] 0.047 | IRAK-1-4 Inhibitor I 0.015 | ibrutinib 0.026 | [10] -0.005 | ralimetinib 0.066 | [11] -0.038 | [12] -0.02 | [13] 0.046 | pinometostat 0.038 | [14] 0.043 | [15] -0.016

NDUFB11 isoform 2 (UniProt Q9NX14)
inactive: erlotinib -0.023 | [1] 0.055 | [2] 0.105 | [3] 0.047 | [4] 0.044 | [5] 0.012 | [6] 0.016 | [7] -0.016 | [8] -0.009 | [9] -0.037 | IRAK-1-4 Inhibitor I 0.054 | ibrutinib -0.003 | [10] 0 | ralimetinib -0.003 | [11] 0.013 | [12] -0.024 | [13] -0.001 | pinometostat -0.057 | [14] 0.007 | [15] 0.069

NEDD1 isoform 3 (UniProt Q8NHV4)
inactive: erlotinib 0.002 | [1] 0.014 | [2] 0.005 | [3] -0.001 | [4] 0.028 | [5] 0.025 | [6] 0.028 | [7] -0.032 | [8] -0.03 | [9] -0.007 | IRAK-1-4 Inhibitor I 0.007 | ibrutinib -0.059 | [10] 0.003 | ralimetinib 0.018 | [11] 0.002 | [12] 0.026 | [13] 0.009 | pinometostat -0.013 | [14] -0.017 | [15] 0.026

N4BP1 (UniProt O75113)
inactive: erlotinib -0.025 | [1] -0.175 | [2] -0.089 | [3] -0.082 | [4] 0.153 | [5] -0.011 | [6] 0.087 | [7] -0.005 | [8] -0.132 | [9] 0.032 | IRAK-1-4 Inhibitor I -0.055 | ibrutinib -0.048 | [10] 0.015 | ralimetinib 0.151 | [11] 0.094 | [12] -0.352 | [13] -0.087 | pinometostat 0.016 | [14] -0.043 | [15] 0.017

NACA4P (UniProt Q9BZK3)
inactive: erlotinib 0.152 | [1] 0.05 | [2] 0.071 | [3] -0.081 | [4] -0.178 | [5] 0.233 | [6] 0.098 | [7] 0.152 | [8] -0.163 | [9] 0.045 | IRAK-1-4 Inhibitor I -0.027 | ibrutinib -0.018 | [10] 0.082 | ralimetinib 0.021 | [11] -0.028 | [12] 0.345 | [13] -0.063 | pinometostat -0.097 | [14] -0.11 | [15] 0.149

NDUFV3 (UniProt P56181)
inactive: erlotinib -0.175 | [1] 0.001 | [2] 0.045 | [3] -0.076 | [4] 0.049 | [5] 0.135 | [6] -0.002 | [7] -0.027 | [8] -0.18 | [9] -0.093 | IRAK-1-4 Inhibitor I 0.003 | ibrutinib -0.032 | [10] -0.015 | ralimetinib -0.126 | [11] 0.019 | [12] 0.197 | [13] 0.091 | pinometostat -0.078 | [14] 0.012 | [15] 0.109

NDUFAF3 (UniProt Q9BU61)
inactive: erlotinib 0.01 | [1] 0.069 | [2] 0.071 | [3] -0.034 | [4] 0.03 | [5] -0.011 | [6] 0.093 | [7] 0.011 | [8] -0.015 | [9] 0.02 | IRAK-1-4 Inhibitor I 0.032 | ibrutinib 0.002 | [10] 0.007 | ralimetinib 0.011 | [11] -0.046 | [12] -0.09 | [13] 0.001 | pinometostat -0.059 | [14] 0.003 | [15] 0.121

NDOR1 isoform 2 (UniProt Q9UHB4)
inactive: erlotinib -0.007 | [1] 0.084 | [2] 0.003 | [3] 0.007 | [4] 0.016 | [5] -0.017 | [6] 0.034 | [7] 0 | [8] 0 | [9] 0.006 | IRAK-1-4 Inhibitor I -0.012 | ibrutinib 0.005 | [10] -0.069 | ralimetinib -0.001 | [11] -0.046 | [12] 0.062 | [13] 0.03 | pinometostat -0.048 | [14] -0.061 | [15] -0.012

NDUFA8 (UniProt P51970)
inactive: erlotinib 0 | [1] -0.004 | [2] 0.045 | [3] -0.02 | [4] 0.024 | [5] 0.01 | [6] -0.032 | [7] 0.015 | [8] 0.032 | [9] -0.029 | IRAK-1-4 Inhibitor I -0.001 | ibrutinib 0.008 | [10] 0.013 | ralimetinib -0.076 | [11] -0.009 | [12] -0.109 | [13] -0.061 | pinometostat -0.045 | [14] 0.024 | [15] -0.013

NDUFA11 (UniProt Q86Y39)
inactive: erlotinib 0.019 | [1] 0.03 | [2] 0.089 | [3] 0 | [4] 0.012 | [5] 0.043 | [6] 0.006 | [7] -0.005 | [8] -0.019 | [9] -0.029 | IRAK-1-4 Inhibitor I 0.033 | ibrutinib -0.001 | [10] -0.013 | ralimetinib -0.042 | [11] -0.014 | [12] -0.04 | [13] -0.03 | pinometostat -0.055 | [14] 0.021 | [15] 0.011

NARS1 (UniProt O43776)
inactive: erlotinib 0.005 | [1] -0.046 | [2] 0.01 | [3] 0.009 | [4] -0.032 | [5] 0.02 | [6] -0.008 | [7] 0.019 | [8] 0.01 | [9] 0.013 | IRAK-1-4 Inhibitor I 0.004 | ibrutinib 0.001 | [10] 0.001 | ralimetinib -0.023 | [11] 0.064 | [12] 0.08 | [13] -0.017 | pinometostat -0.025 | [14] 0.009 | [15] 0.013

Two records picked at random from the list so far:
NDUFV3 (UniProt P56181)
inactive: erlotinib -0.175 | [1] 0.001 | [2] 0.045 | [3] -0.076 | [4] 0.049 | [5] 0.135 | [6] -0.002 | [7] -0.027 | [8] -0.18 | [9] -0.093 | IRAK-1-4 Inhibitor I 0.003 | ibrutinib -0.032 | [10] -0.015 | ralimetinib -0.126 | [11] 0.019 | [12] 0.197 | [13] 0.091 | pinometostat -0.078 | [14] 0.012 | [15] 0.109

NACA4P (UniProt Q9BZK3)
inactive: erlotinib 0.152 | [1] 0.05 | [2] 0.071 | [3] -0.081 | [4] -0.178 | [5] 0.233 | [6] 0.098 | [7] 0.152 | [8] -0.163 | [9] 0.045 | IRAK-1-4 Inhibitor I -0.027 | ibrutinib -0.018 | [10] 0.082 | ralimetinib 0.021 | [11] -0.028 | [12] 0.345 | [13] -0.063 | pinometostat -0.097 | [14] -0.11 | [15] 0.149

Later entries:

NAA50 (UniProt Q9GZZ1)
inactive: erlotinib 0.037 | [1] 0.06 | [2] 0.043 | [3] -0.012 | [4] -0.02 | [5] -0.144 | [6] 0.053 | [7] -0.005 | [8] -0.054 | [9] 0.037 | IRAK-1-4 Inhibitor I 0.024 | ibrutinib 0.02 | [10] -0.029 | ralimetinib -0.034 | [11] -0.013 | [12] -0.011 | [13] -0.048 | pinometostat -0.091 | [14] -0.026 | [15] -0.005

NDUFAF4 (UniProt Q9P032)
inactive: erlotinib 0.011 | [1] 0.006 | [2] 0.051 | [3] 0.01 | [4] 0.03 | [5] 0.019 | [6] 0.009 | [7] 0.002 | [8] 0.027 | [9] 0.019 | IRAK-1-4 Inhibitor I 0.036 | ibrutinib -0.005 | [10] -0.027 | ralimetinib -0.016 | [11] -0.035 | [12] -0.153 | [13] -0.012 | pinometostat 0 | [14] 0.008 | [15] 0.031

NDUFS2 (UniProt O75306)
inactive: erlotinib -0.017 | [1] 0.047 | [2] 0.064 | [3] 0.016 | [4] 0.007 | [5] 0.041 | [6] 0.022 | [7] 0.055 | [8] -0.03 | [9] 0 | IRAK-1-4 Inhibitor I 0.013 | ibrutinib 0.022 | [10] -0.014 | ralimetinib -0.036 | [11] -0.154 | [12] -0.084 | [13] -0.032 | pinometostat -0.019 | [14] 0.009 | [15] 0.054

NAA16 (UniProt Q6N069)
inactive: erlotinib 0.088 | [1] 0.012 | [2] -0.005 | [3] -0.02 | [4] 0.021 | [5] -0.073 | [6] 0.001 | [7] 0.089 | [8] -0.005 | [9] 0.064 | IRAK-1-4 Inhibitor I -0.043 | ibrutinib 0.06 | [10] -0.204 | ralimetinib 0.037 | [11] 0.016 | [12] -0.075 | [13] 0.002 | pinometostat 0.008 | [14] -0.014 | [15] 0.013

NAXE (UniProt Q8NCW5)
inactive: erlotinib -0.005 | [1] 0.031 | [2] 0.09 | [3] 0.016 | [4] 0.059 | [5] -0.003 | [6] 0.04 | [7] -0.007 | [8] -0.017 | [9] 0.001 | IRAK-1-4 Inhibitor I 0.049 | ibrutinib 0.034 | [10] 0.013 | ralimetinib -0.046 | [11] 0.046 | [12] 0.063 | [13] -0.016 | pinometostat -0.076 | [14] -0.012 | [15] 0.066
